Measured data: PubChem BioAssay AID504786 (Drosophila RNAi Screening Center, 2011)
Purpose: 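Knock-downs reducing HIF reporter induction by the iron chelator DFO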 (primary screen). Cells: Drosophila S2 cells with a stable HIF luciferase reporter. Reagents: long dsRNA against Drosophila genes, about 0.2 µg dsRNA per well of a 384-well plate. Time to read-out: three days of knock-down, then 20 h of DFO before reading. Treatment: desferrioxamine (DFO) at 100 µM, an iron chelator that mimics hypoxia, for 20 h. Measurement: 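HIF reporter luminescence in cells given 100 µM DFO for 20 h, using the mouse ldh-a hypoxia-response element, scored as per-plate z-scores; higher means greater loss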. Direction: z-score: higher = stronger loss of HIF reporter signal.
The screen tested about 21,000 reagents; shown is an unselected part of those with a known target gene and a result. 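Primary screen; positive scores mean lost reporter signal, so the sign may be inverted from the usual convention.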 No sequences are given here.

Cht4 (Chitinase 4) [DRSC04603]: z-score, replicate 1 = -0.2; z-score, replicate 2 = -0.1
Gyc89Da (Guanylyl cyclase at 89Da) [DRSC15008]: z-score, replicate 1 = -0.3; z-score, replicate 2 = -0.1
Mayo [DRSC14300]: z-score, replicate 1 = -0.3; z-score, replicate 2 = -0.2
CG7884 [DRSC20065]: z-score, replicate 1 = -0.5; z-score, replicate 2 = -0.5
CG14022 [DRSC02352]: z-score, replicate 1 = -0.2; z-score, replicate 2 = -0.4
fwe (flower) [DRSC09398]: z-score, replicate 1 = -0.3; z-score, replicate 2 = -0.2
fwe (flower) [DRSC10594]: z-score, replicate 1 = -0.4; z-score, replicate 2 = -0.5
Eig71Eg (Ecdysone-induced gene 71Eg) [DRSC11154]: z-score, replicate 1 = -0.2; z-score, replicate 2 = -0.5
CG33127 [DRSC00011]: z-score, replicate 1 = -0.1; z-score, replicate 2 = 0.1
CG4313 [DRSC18514]: z-score, replicate 1 = -0.3; z-score, replicate 2 = 0.1
CG7906 [DRSC10928]: z-score, replicate 1 = -0.3; z-score, replicate 2 = -0.4
CR15821 (pseudo) [DRSC08481]: z-score, replicate 1 = -0.3; z-score, replicate 2 = -0.1
Opa1 (Optic atrophy 1) [DRSC07191]: z-score, replicate 1 = -0.1; z-score, replicate 2 = -0.2
CG1637 [DRSC18865]: z-score, replicate 1 = -0.3; z-score, replicate 2 = -0.4
CG1637 [DRSC19748]: z-score, replicate 1 = -0.3; z-score, replicate 2 = -0.4
CG1637 [DRSC19749]: z-score, replicate 1 = -0.2; z-score, replicate 2 = -0.7
CG5455 [DRSC15805]: z-score, replicate 1 = -0.4; z-score, replicate 2 = -0.3
Cad99C (Cadherin 99C) [DRSC15050]: z-score, replicate 1 = -0.3; z-score, replicate 2 = -0.6
Cad99C (Cadherin 99C) [DRSC16317]: z-score, replicate 1 = -0.4; z-score, replicate 2 = 0.2
CG13077 [DRSC02181]: z-score, replicate 1 = -0.4; z-score, replicate 2 = 0
sti (sticky) [DRSC09739]: z-score, replicate 1 = -0.3; z-score, replicate 2 = -0.2
sti (sticky) [DRSC09740]: z-score, replicate 1 = -0.1; z-score, replicate 2 = 0.1
CheA86a (Chemosensory protein A 86a) [DRSC12839]: z-score, replicate 1 = -0.3; z-score, replicate 2 = 0.3
CG12983 [DRSC11692]: z-score, replicate 1 = -0.3; z-score, replicate 2 = -0.6
Rpn13 (Regulatory particle non-ATPase 13) [DRSC06379]: z-score, replicate 1 = 0.6; z-score, replicate 2 = 0.5
CG11317 [DRSC14299]: z-score, replicate 1 = -0.4; z-score, replicate 2 = -0.4

An excerpt from above, showing only “z-score, replicate 1”:
Mayo [DRSC14300] = -0.3
CG7884 [DRSC20065] = -0.5
CG14022 [DRSC02352] = -0.2
fwe (flower) [DRSC09398] = -0.3
fwe (flower) [DRSC10594] = -0.4

More reagents follow:
TpnC4 (Troponin C isoform 4) [DRSC04856]: z-score, replicate 1 = -0.2; z-score, replicate 2 = -0.5
Drsl4 (Drosomycin-like 4) [DRSC08034]: z-score, replicate 1 = -0.1; z-score, replicate 2 = 0.6
CG12229 [DRSC09868]: z-score, replicate 1 = 0; z-score, replicate 2 = 0
CG33120 [DRSC02073]: z-score, replicate 1 = -0.3; z-score, replicate 2 = -0.4
Mef2 (Myocyte enhancer factor 2) [DRSC07468]: z-score, replicate 1 = -0.1; z-score, replicate 2 = -0.5
CG31638 [DRSC02269]: z-score, replicate 1 = 0; z-score, replicate 2 = -0.2
CG31638 [DRSC03259]: z-score, replicate 1 = -0.1; z-score, replicate 2 = -0.3
CSN5 (COP9 signalosome subunit 5) [DRSC16592]: z-score, replicate 1 = -0.2; z-score, replicate 2 = -0.1
CG8861 [DRSC12731]: z-score, replicate 1 = 0; z-score, replicate 2 = 0.2
CG8861 [DRSC16449]: z-score, replicate 1 = -0.5; z-score, replicate 2 = -0.2
Pex7 (Peroxin 7) [DRSC10651]: z-score, replicate 1 = -0.2; z-score, replicate 2 = 0.2
Ak6 (Adenylate kinase 6) [DRSC07274]: z-score, replicate 1 = -0.4; z-score, replicate 2 = -0.8
stwl (stonewall) [DRSC11400]: z-score, replicate 1 = 1.3; z-score, replicate 2 = 1.3
CG8509 [DRSC20109]: z-score, replicate 1 = -0.2; z-score, replicate 2 = -0.2
